“Also recorded” adds a separate entry of the source.
Assay: H2S release via methylene blue assay (MBA)
Format: physicochemical
Details: 25 μM compound, cysteine 500 μM (20 equiv.)
Procedure: H2S Detection Materials and Methods—Phosphate buffered saline (PBS) tablets (1×, CalBioChem) were used to prepare buffered solutions (140 mM NaCl, 3 mM KCl, 10 mM phosphate, pH 7.4) in deionized water. Buffer solutions were sparged with N2 to remove dissolved oxygen and stored in an N2-filled glovebox. Donor stock solutions (in DMSO) were prepared inside an N2-filled glovebox and stored at −25° C. until immediately before use. Trigger stock solutions (in PBS) were freshly prepared in an N2-filled glovebox immediately before use.
General Procedure for Measuring H2S Release via Methylene Blue Assay (MBA)—Scintillation vials containing 20 mL of PBS were prepared in an N2-filled glovebox. […] Absorbance values at 670 nm were measured 1 hour after addition of reaction aliquot. […]
MBA Calibration Curve—Solutions containing 0.5 mL of the methylene blue cocktail and 0.5 mL PBS containing 500 μM cysteine were freshly prepared in disposable cuvettes (1.5 mL). […] Absorbance values at 670 nm were measured after 1 hour.
In this example, the released H2S was measured and quantified using the methylene blue assay for H2S. […] After incubation for 1 hour, the absorbance at 670 nm is measured and converted to a H2S concentration by using the H2S calibration curve. To assess the H2S-releasing efficiency from the compound embodiments, a methylene blue calibration curve was used to quantify the H2S release (FIG. 2).

SMILES: O=C(Nc1ccccc1)c1ccccc1 [N-phenylbenzamide, reference compound]
- H2S release in the presence of cysteine: lack of H2S release; also recorded: failed to release H2S
